Experimental data taken from the supplement of paper PMC12823440, “Inhibitors supercharge kinase turnover through native proteolytic circuits” (Nature, 2025).
Some of the results follow. The calls rarely recur for the same compound in another form.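 In K562 cells expressing nanoluciferase-fused kinases, luminescence was recorded at 4 h intervals between 2 and 18 h, normalized as percent of control with DMSO at 100% and a positive control at 0%. A significant (2 sigma) signal drop marks a time point as decreased. The authors' rule for a hit is not shown and takes in more than the number of time points.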

The chains behind the UniProt entries cited, without tags or fusion partners. Where a name states a change or a piece, a line headed by the entry shows the natural chain unless it says otherwise.
UniProt Q9Y463, whole entry, looked up: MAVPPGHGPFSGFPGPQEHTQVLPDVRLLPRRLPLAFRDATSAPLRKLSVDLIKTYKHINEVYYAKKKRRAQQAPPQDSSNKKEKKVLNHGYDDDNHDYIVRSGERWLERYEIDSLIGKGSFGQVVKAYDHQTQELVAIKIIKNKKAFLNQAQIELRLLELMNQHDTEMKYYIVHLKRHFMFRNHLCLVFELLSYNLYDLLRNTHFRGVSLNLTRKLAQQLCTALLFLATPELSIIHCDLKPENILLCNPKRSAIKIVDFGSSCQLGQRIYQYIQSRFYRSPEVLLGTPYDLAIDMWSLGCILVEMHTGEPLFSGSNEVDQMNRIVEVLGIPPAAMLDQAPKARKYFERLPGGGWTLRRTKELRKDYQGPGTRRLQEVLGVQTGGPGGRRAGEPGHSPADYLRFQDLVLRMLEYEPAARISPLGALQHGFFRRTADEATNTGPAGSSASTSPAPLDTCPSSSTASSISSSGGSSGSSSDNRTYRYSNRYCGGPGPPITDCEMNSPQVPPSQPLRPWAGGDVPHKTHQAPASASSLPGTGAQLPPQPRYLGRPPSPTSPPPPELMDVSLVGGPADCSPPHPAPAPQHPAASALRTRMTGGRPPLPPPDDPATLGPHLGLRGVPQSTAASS
UniProt P31152, whole entry: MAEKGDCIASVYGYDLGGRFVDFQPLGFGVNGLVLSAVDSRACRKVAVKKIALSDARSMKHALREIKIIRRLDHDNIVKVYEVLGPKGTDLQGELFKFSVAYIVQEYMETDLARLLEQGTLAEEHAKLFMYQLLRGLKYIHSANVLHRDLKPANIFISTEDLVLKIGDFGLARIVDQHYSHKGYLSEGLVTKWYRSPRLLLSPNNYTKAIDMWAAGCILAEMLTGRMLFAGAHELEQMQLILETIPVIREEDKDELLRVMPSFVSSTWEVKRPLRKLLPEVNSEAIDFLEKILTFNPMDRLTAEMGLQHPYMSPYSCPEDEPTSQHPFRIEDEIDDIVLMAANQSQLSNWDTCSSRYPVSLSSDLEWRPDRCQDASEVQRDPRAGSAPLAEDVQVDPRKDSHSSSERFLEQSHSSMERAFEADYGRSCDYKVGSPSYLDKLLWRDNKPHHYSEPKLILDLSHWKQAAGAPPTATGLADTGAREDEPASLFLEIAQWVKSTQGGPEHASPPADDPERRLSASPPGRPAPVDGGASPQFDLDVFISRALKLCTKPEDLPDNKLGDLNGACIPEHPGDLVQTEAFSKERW
UniProt Q15418, whole entry: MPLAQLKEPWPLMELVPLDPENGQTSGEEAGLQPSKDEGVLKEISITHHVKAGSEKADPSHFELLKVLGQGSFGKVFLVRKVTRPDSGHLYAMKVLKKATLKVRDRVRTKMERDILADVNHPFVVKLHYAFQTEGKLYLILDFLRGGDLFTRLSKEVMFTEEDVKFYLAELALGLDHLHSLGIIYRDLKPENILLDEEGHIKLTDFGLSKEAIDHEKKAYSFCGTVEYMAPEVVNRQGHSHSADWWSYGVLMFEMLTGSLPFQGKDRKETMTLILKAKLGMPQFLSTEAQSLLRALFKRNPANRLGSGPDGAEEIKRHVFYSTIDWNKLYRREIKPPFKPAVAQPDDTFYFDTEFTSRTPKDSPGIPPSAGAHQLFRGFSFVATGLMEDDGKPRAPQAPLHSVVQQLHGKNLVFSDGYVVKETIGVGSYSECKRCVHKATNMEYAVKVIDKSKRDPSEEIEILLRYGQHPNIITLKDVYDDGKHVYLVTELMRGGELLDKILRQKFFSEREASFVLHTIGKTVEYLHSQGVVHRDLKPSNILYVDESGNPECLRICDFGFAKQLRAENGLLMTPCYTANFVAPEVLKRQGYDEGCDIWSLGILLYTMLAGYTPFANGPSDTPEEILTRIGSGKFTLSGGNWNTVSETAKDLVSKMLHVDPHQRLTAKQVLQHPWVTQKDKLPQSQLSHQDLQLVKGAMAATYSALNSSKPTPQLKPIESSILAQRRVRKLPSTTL
UniProt Q15131: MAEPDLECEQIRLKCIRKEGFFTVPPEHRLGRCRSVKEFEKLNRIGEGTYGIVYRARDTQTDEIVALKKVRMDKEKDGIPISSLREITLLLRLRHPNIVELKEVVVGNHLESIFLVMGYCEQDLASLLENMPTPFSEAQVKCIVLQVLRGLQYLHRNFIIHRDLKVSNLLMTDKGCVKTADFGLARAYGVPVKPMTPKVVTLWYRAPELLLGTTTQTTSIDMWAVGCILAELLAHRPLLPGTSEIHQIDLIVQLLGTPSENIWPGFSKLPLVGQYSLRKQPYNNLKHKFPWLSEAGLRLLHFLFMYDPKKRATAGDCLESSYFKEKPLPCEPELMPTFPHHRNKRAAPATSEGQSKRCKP
UniProt P00519, whole entry: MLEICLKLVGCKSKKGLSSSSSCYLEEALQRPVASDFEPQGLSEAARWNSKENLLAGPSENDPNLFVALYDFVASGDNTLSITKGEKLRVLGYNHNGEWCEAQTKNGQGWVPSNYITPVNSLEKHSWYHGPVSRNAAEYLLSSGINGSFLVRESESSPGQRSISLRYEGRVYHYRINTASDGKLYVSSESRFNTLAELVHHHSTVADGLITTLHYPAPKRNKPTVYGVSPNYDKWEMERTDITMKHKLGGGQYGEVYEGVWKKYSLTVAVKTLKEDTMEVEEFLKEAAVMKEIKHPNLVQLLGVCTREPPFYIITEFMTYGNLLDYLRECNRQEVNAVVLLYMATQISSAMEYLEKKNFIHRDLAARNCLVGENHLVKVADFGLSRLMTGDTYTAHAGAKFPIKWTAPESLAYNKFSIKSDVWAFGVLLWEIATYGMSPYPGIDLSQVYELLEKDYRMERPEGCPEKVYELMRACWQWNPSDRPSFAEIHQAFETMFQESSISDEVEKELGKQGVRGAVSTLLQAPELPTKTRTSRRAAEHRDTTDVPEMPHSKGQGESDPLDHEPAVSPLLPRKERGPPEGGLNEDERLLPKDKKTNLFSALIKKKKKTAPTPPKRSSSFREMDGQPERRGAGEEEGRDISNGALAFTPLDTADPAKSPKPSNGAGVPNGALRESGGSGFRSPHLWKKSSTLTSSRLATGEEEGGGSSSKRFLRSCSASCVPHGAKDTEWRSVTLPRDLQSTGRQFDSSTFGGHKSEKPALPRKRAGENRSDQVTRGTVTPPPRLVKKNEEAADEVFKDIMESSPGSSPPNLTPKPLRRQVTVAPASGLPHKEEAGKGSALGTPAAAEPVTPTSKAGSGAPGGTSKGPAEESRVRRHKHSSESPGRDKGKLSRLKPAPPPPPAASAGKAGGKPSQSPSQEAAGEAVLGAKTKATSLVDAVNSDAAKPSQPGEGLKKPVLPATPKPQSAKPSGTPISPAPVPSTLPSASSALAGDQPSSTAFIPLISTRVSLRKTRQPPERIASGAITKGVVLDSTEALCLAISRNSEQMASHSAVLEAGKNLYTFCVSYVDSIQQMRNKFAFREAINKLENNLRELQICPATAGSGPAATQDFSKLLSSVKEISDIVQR
UniProt Q00534, whole entry: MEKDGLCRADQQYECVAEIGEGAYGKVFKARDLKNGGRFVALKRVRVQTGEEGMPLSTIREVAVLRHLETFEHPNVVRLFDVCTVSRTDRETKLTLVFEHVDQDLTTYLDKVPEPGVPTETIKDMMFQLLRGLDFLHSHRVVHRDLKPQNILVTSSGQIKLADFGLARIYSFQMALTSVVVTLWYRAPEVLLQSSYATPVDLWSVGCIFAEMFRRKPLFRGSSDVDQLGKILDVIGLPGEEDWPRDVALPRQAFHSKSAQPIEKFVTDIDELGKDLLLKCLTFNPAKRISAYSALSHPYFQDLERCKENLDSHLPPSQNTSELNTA
UniProt Q15208: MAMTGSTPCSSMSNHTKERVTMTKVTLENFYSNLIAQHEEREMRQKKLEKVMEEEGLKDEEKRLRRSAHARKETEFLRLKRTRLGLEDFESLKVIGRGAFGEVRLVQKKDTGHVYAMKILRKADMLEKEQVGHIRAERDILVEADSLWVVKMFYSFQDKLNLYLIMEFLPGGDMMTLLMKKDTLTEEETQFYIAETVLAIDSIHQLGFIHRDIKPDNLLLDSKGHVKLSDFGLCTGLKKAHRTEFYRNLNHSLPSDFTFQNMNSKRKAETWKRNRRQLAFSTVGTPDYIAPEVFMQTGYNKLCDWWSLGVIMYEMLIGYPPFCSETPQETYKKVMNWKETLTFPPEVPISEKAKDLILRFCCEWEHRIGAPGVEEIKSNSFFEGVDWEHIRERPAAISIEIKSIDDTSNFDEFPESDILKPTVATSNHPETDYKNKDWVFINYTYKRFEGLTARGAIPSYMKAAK
UniProt Q96KB5: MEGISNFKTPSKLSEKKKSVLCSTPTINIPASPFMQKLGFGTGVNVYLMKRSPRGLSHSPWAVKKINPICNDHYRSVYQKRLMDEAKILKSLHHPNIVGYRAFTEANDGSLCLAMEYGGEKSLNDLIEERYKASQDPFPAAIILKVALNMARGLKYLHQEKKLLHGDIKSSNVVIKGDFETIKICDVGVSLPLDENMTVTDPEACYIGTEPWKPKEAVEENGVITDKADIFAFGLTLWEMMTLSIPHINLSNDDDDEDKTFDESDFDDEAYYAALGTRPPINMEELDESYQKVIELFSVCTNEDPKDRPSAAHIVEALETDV
UniProt P28482, whole entry: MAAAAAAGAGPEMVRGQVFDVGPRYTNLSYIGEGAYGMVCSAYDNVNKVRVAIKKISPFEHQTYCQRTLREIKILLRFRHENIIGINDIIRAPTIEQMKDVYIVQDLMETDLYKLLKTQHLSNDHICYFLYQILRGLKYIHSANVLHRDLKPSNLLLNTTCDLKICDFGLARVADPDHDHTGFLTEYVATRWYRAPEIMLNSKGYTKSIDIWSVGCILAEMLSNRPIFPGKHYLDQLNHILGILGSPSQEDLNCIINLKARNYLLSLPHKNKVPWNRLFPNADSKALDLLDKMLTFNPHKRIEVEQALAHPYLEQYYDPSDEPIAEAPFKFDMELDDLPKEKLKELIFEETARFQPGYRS
UniProt P07949, whole entry M918T, looked up: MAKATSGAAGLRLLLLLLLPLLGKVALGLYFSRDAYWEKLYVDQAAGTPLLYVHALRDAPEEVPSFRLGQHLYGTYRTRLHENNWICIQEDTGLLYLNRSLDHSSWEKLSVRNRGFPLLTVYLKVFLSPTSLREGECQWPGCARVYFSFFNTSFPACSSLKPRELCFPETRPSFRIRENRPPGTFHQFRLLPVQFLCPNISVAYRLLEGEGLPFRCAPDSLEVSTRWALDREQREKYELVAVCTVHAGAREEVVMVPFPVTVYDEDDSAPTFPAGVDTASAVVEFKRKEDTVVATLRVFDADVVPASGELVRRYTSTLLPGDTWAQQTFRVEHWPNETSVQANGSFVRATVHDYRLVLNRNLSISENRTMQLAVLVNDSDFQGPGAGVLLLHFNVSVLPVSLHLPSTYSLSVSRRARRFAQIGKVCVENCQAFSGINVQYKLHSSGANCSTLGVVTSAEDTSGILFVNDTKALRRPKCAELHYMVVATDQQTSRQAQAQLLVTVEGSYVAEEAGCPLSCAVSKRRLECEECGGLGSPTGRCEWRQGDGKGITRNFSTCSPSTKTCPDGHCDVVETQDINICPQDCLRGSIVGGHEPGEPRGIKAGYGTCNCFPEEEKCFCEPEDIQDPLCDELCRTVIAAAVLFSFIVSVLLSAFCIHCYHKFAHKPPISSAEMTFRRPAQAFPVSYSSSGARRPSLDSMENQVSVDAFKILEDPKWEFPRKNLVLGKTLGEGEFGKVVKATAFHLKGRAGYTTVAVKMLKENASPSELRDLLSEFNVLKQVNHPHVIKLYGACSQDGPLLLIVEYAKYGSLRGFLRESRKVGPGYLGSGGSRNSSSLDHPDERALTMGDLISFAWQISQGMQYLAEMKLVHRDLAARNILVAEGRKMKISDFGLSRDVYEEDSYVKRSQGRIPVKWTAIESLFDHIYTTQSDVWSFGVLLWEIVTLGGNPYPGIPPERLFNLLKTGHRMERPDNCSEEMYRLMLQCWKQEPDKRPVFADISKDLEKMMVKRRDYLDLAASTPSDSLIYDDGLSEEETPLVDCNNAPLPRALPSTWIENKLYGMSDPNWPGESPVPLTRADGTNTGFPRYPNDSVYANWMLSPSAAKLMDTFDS
UniProt Q9Y6E0: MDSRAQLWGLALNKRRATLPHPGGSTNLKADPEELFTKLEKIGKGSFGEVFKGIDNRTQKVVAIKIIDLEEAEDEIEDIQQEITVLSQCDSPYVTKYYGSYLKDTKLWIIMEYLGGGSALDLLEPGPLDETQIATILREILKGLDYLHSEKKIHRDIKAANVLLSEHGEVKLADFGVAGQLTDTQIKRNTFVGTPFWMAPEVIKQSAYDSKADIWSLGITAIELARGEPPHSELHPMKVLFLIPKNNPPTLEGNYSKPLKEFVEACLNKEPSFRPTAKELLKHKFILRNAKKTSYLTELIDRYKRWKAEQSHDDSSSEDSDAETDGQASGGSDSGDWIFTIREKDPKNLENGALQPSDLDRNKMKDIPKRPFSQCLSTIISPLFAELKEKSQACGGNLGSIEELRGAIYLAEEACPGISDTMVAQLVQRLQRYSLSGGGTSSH

Key:
Assay in all cases: number of time points (of 5) at which kinase-Nluc abundance scored as decreased, DMSO-normalised (count); higher = more persistent destabilization
[1] = compound: C#Cc1cccc(Nc2ncnc3cc(OCCOC)c(OCCO)cc23)c1 [Desmethyl Erlotinib (hydrochloride)]; settings: 10 µM; K562; 2-18 h
Desmethyl Erlotinib = compound: C#Cc1cccc(Nc2ncnc3cc(OCCOC)c(OCCO)cc23)c1 [Desmethyl Erlotinib]; settings: 10 µM; K562; 2-18 h
[2] = compound: C#Cc1cccc(Nc2ncnc3cc(OCCOC)c(OCCOC)cc23)c1 [Erlotinib (Hydrochloride)]; settings: 10 µM; K562; 2-18 h
Erlotinib = compound: C#Cc1cccc(Nc2ncnc3cc(OCCOC)c(OCCOC)cc23)c1 [Erlotinib]; settings: 10 µM; K562; 2-18 h
Icotinib (Hydrochloride) = compound: C#Cc1cccc(Nc2ncnc3cc4c(cc23)OCCOCCOCCO4)c1 [Icotinib (Hydrochloride)]; settings: 10 µM; K562; 2-18 h
Icotinib = compound: C#Cc1cccc(Nc2ncnc3cc4c(cc23)OCCOCCOCCO4)c1 [Icotinib]; settings: 10 µM; K562; 2-18 h
(Z)-Guggulsterone = compound: C/C=C1\C(=O)C[C@H]2[C@@H]3CCC4=CC(=O)CC[C@]4(C)[C@H]3CC[C@]12C [(Z)-Guggulsterone]; settings: 10 µM; K562; 2-18 h
Guggulsterone = compound: C/C=C1\C(=O)C[C@H]2[C@@H]3CCC4=CC(=O)CC[C@]4(C)[C@H]3CC[C@]12C [Guggulsterone]; settings: 10 µM; K562; 2-18 h
[3] = compound: C=CC(=O)N1CCN(c2ncnc3c(F)c(-c4c(O)cccc4F)c(Cl)cc23)CC1; settings: K562, 2-18 h
Mobocertinib (succinate) = compound: C=CC(=O)Nc1cc(Nc2ncc(C(=O)OC(C)C)c(-c3cn(C)c4ccccc34)n2)c(OC)cc1N(C)CCN(C)C [Mobocertinib (succinate)]; settings: 10 µM; K562; 2-18 h
Mobocertinib = compound: C=CC(=O)Nc1cc(Nc2ncc(C(=O)OC(C)C)c(-c3cn(C)c4ccccc34)n2)c(OC)cc1N(C)CCN(C)C [Mobocertinib]; settings: 10 µM; K562; 2-18 h
Osimertinib (dimesylate) = compound: C=CC(=O)Nc1cc(Nc2nccc(-c3cn(C)c4ccccc34)n2)c(OC)cc1N(C)CCN(C)C [Osimertinib (dimesylate)]; settings: 2.5 µM; K562; 2-18 h
Osimertinib mesylate = compound: C=CC(=O)Nc1cc(Nc2nccc(-c3cn(C)c4ccccc34)n2)c(OC)cc1N(C)CCN(C)C [Osimertinib mesylate]; settings: 2.5 µM; K562; 2-18 h
Osimertinib = compound: C=CC(=O)Nc1cc(Nc2nccc(-c3cn(C)c4ccccc34)n2)c(OC)cc1N(C)CCN(C)C [Osimertinib]; settings: 2.5 µM; K562; 2-18 h
[4] = compound: C=CC(=O)Nc1cc(Nc2nccc(-c3cn(C4CC4)c4ccccc34)n2)c(OC)cc1N(C)CCN(C)C [Almonertinib (hydrochloride)]; settings: 2.5 µM; K562; 2-18 h
Almonertinib = compound: C=CC(=O)Nc1cc(Nc2nccc(-c3cn(C4CC4)c4ccccc34)n2)c(OC)cc1N(C)CCN(C)C [Almonertinib]; settings: 2.5 µM; K562; 2-18 h
AV-412 (free base) = compound: C=CC(=O)Nc1cc2c(Nc3ccc(F)c(Cl)c3)ncnc2cc1C#CC(C)(C)N1CCN(C)CC1 [AV-412 (free base)]; settings: 2.5 µM; K562; 2-18 h
[5] = compound: C=CC(=O)Nc1cc2c(Nc3ccc(F)c(Cl)c3)ncnc2cc1C#CC(C)(C)N1CCN(C)CC1; settings: 2.5 µM; K562; 2-18 h
[6] = compound: CC(=O)N[C@H](Cc1ccc(O)cc1)C(=O)N[C@H](CCCN=C(N)N)C(=O)N[C@H](Cc1ccccc1)C(N)=O; settings: 10 µM; K562; 2-18 h
[7] = compound: CC(=O)Nc1cccc(-n2c(=O)n(C3CC3)c(=O)c3c(Nc4ccc(I)cc4F)n(C)c(=O)c(C)c32)c1 [Trametinib (DMSO solvate)]; settings: 10 µM; K562; 2-18 h

| Target | number of time points [1] | number of time points (Desmethyl Erlotinib) | number of time points [2] | number of time points (Erlotinib) | number of time points (Icotinib (Hydrochloride)) | number of time points (Icotinib) | number of time points ((Z)-Guggulsterone) | number of time points (Guggulsterone) | number of time points ([3]; 2.5 µM) | number of time points ([3]; 10 µM) | number of time points (Mobocertinib (succinate)) | number of time points (Mobocertinib) | number of time points (Osimertinib (dimesylate)) | number of time points (Osimertinib mesylate) | number of time points (Osimertinib) | number of time points [4] | number of time points (Almonertinib) | number of time points (AV-412 (free base)) | number of time points [5] | number of time points [6] | number of time points [7] |
| --- | --- | --- | --- | --- | --- | --- | --- | --- | --- | --- | --- | --- | --- | --- | --- | --- | --- | --- | --- | --- | --- |
| PDGFRB (UniProt P09619) | 0 | 0 | 0 | 0 | 0 | 0 | 0 | 0 | 0 | 0 | 0 | 0 | 0 | 0 | 0 | 0 | 0 | 0 | 0 | 0 | 2 |
| FGFR1 (UniProt P11362) | 0 | 0 | 0 | 0 | 0 | 0 | 0 | 0 | 0 | 0 | 0 | 0 | 0 | 0 | 0 | 0 | 0 | 0 | 0 | 0 | 0 |
| DYRK1B (UniProt Q9Y463) | 0 | 0 | 0 | 0 | 0 | 0 | 0 | 0 | 0 | 0 | 0 | 0 | 0 | 0 | 0 | 0 | 0 | 0 | 0 | 0 | 0 |
| MAPK4 (UniProt P31152) | 0 | 0 | 0 | 0 | 0 | 0 | 0 | 0 | 0 | 0 | 0 | 0 | 0 | 0 | 0 | 0 | 0 | 0 | 0 | 0 | 0 |
| RPS6KA1 (UniProt Q15418) | 0 | 0 | 0 | 0 | 0 | 0 | 0 | 0 | 0 | 0 | 0 | 0 | 0 | 0 | 0 | 0 | 0 | 0 | 0 | 0 | 0 |
| YES1 (UniProt P07947) | 0 | 0 | 0 | 0 | 0 | 3 | 0 | 0 | 0 | 0 | 0 | 0 | 0 | 0 | 0 | 0 | 0 | 0 | 0 | 0 | 0 |
| CDK10 (UniProt Q15131) | 0 | 0 | 0 | 0 | 0 | 0 | 0 | 0 | 0 | 0 | 0 | 0 | 0 | 0 | 0 | 0 | 0 | 0 | 1 | 0 | 0 |
| ABL1 (UniProt P00519) | 0 | 0 | 0 | 4 | 0 | 0 | 1 | 0 | 0 | 0 | 0 | 0 | 2 | 2 | 2 | 0 | 0 | 0 | 0 | 0 | 0 |
| CDK6 (UniProt Q00534) | 0 | 0 | 0 | 0 | 0 | 0 | 0 | 0 | 0 | 0 | 0 | 0 | 0 | 0 | 0 | 0 | 0 | 0 | 0 | 0 | 0 |
| STK38 (UniProt Q15208) | 0 | 0 | 0 | 0 | 0 | 0 | 0 | 0 | 0 | 0 | 0 | 0 | 0 | 0 | 0 | 0 | 0 | 0 | 0 | 0 | 0 |
| CDK2 (UniProt P24941) | 0 | 0 | 0 | 0 | 0 | 0 | 0 | 0 | 0 | 0 | 0 | 0 | 0 | 0 | 0 | 0 | 0 | 0 | 0 | 0 | 0 |
| PBK (UniProt Q96KB5) | 0 | 0 | 0 | 0 | 0 | 0 | 0 | 0 | 0 | 0 | 0 | 0 | 0 | 0 | 0 | 0 | 0 | 0 | 0 | 0 | 0 |
| MAPK1 (UniProt P28482) | 0 | 0 | 0 | 0 | 0 | 0 | 0 | 0 | 0 | 0 | 0 | 0 | 0 | 0 | 0 | 0 | 0 | 0 | 0 | 0 | 0 |
| RET_M918T (clone: RET_mut) (UniProt P07949) | 0 | 0 | 0 | 0 | 0 | 0 | 0 | 0 | 0 | 0 | 0 | 0 | 0 | 0 | 0 | 0 | 0 | 0 | 0 | 0 | 0 |
| STK24 (UniProt Q9Y6E0) | 0 | 0 | 0 | 0 | 0 | 0 | 0 | 0 | 0 | 0 | 0 | 0 | 0 | 0 | 0 | 0 | 0 | 0 | 0 | 0 | 0 |

Only number of time points (Osimertinib mesylate) and number of time points (Almonertinib), for some of the entries so far:
Target,number of time points (Osimertinib mesylate),number of time points (Almonertinib)
FGFR1 (UniProt P11362),0,0
RPS6KA1 (UniProt Q15418),0,0
